Experimental data taken from article PMC6395809 (Scientific Reports, 2019).
These are yes or no findings as the source states them, for the method shown. Sequences can lack the tags named with a protein.

T1: GST_CT_p130Cas (UniProt Q61140)
T1 sequence: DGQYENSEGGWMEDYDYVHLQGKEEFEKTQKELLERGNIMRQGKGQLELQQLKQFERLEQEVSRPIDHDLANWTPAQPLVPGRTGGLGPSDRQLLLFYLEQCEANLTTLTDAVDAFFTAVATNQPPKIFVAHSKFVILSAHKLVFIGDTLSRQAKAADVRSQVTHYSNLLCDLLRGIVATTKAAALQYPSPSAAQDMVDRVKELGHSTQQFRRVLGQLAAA

T2: GST_YXXP_p130Cas (UniProt Q61140)
T2 sequence: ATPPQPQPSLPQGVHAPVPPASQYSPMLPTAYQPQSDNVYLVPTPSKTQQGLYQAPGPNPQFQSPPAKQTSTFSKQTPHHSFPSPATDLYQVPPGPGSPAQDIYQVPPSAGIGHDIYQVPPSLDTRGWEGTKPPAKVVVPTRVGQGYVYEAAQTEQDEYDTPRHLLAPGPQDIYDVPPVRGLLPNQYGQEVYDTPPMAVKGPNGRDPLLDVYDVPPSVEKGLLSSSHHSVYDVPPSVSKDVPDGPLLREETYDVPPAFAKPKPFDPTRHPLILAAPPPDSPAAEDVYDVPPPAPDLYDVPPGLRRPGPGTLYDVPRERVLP


Tests used:
GST_CT_p130Cas = molecular target: T1, GST_CT_p130Cas; assay: far-Western, overlay or dot blot; 1 μl of GST-tagged p130Cas proteins spotted on nitrocellulose; probed with MBP-tagged ErbB2 protein (1 μg/ml) in Interaction Buffer (50 mM Tris-HCl pH7.4, 150 mM NaCl, 1%Triton-X100) at 4 °C overnight; detected with anti-MBP; both purified
GST_YXXP_p130Cas = molecular target: T2, GST_YXXP_p130Cas; assay: as above
[1] = molecular target: MBP_longPPII_ErbB2 (human (by the printed accession P04626-1)) (UniProt P04626); assay: co-IP; in vitro binding assay: GST-tagged p130Cas and MBP-tagged ErbB2 purified proteins mixed in Interaction Buffer with 1% BSA overnight at 4 °C; immunoprecipitated with anti-MBP and proteinA Sepharose; blot anti-GST; both purified
[2] = molecular target: MBP_shortPPII_ErbB2 (human (by the printed accession P04626-1)) (UniProt P04626); assay: as above

| binding (GST_CT_p130Cas) | binding (GST_YXXP_p130Cas) | binding [1] | binding [2] | Molecule |
| --- | --- | --- | --- | --- |
| no binding (tested: 1 μg/ml) | no binding (tested: 1 μg/ml) | – | – | MBP_shortPPII_ErbB2 (from UniProt P04626-1 1103-1194) (domain or fragment) |
| – | – | no binding | no binding | GST_CT_p130Cas (domain or fragment, UniProt Q61140 654-874) DGQYENSEGGWMEDYDYVHLQGKEEFEKTQKELLERGNIMRQGKGQLELQQLKQFERLEQEVSRPIDHDLANWTPAQPLVPGRTGGLGPSDRQLLLFYLEQCEANLTTLTDAVDAFFTAVATNQPPKIFVAHSKFVILSAHKLVFIGDTLSRQAKAADVRSQVTHYSNLLCDLLRGIVATTKAAALQYPSPSAAQDMVDRVKELGHSTQQFRRVLGQLAAA |
| – | – | no binding | no binding | GST_YXXP_p130Cas (domain or fragment, UniProt Q61140 80-400) ATPPQPQPSLPQGVHAPVPPASQYSPMLPTAYQPQSDNVYLVPTPSKTQQGLYQAPGPNPQFQSPPAKQTSTFSKQTPHHSFPSPATDLYQVPPGPGSPAQDIYQVPPSAGIGHDIYQVPPSLDTRGWEGTKPPAKVVVPTRVGQGYVYEAAQTEQDEYDTPRHLLAPGPQDIYDVPPVRGLLPNQYGQEVYDTPPMAVKGPNGRDPLLDVYDVPPSVEKGLLSSSHHSVYDVPPSVSKDVPDGPLLREETYDVPPAFAKPKPFDPTRHPLILAAPPPDSPAAEDVYDVPPPAPDLYDVPPGLRRPGPGTLYDVPRERVLP |
